PubChem BioAssay AID686937 | Drosophila RNAi Screening Center – 2013
Screen: 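Genes whose loss weakens secretory pathway function in fly cells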 (primary screen). Cells: Drosophila S2 cells expressing secreted horseradish peroxidase. Reagents: long dsRNA against Drosophila genes. Timing: about 5.5 days (5 days dsRNA, then 12 h reporter induction). Treatment: reporter expression induced after 5 days of dsRNA, read 12 h later; inducer not stated. Detection: 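After 5 days of dsRNA and 12 h of reporter induction, medium peroxidase read by chemiluminescence and scored as per-plate z-score; higher values mean more reporter released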. Scale: z-score: higher = more reporter secreted into medium.
In all, the deposit lists about 23,000 reagents; below is an unselected part of those that have a named target and a result. 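Reduced-secretion tags in replicate 1 do not always agree with the z-scores; no criterion for assigning the tags was given.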 Not all columns of the deposit are shown. The record does not give: the amount of reagent.

{"gene": "CG15014 (GeneID 38533)", "amplicon": "DRSC08468", "z-score, replicate 1": 0.18}
{"gene": "BaraC (GeneID 246528)", "amplicon": "DRSC03885", "z-score, replicate 1": -0.7}
{"gene": "CG2790 (GeneID 37992)", "amplicon": "DRSC04045", "z-score, replicate 1": 0.63}
{"gene": "Mtmr6 (GeneID 37707)", "amplicon": "DRSC04046", "z-score, replicate 1": 0.36}
{"gene": "CG8260 (GeneID 32521)", "amplicon": "DRSC20098", "z-score, replicate 1": 0.31}
{"gene": "Cyp4aa1 (GeneID 36752)", "amplicon": "DRSC07368", "z-score, replicate 1": 0.51}
{"gene": "Muc26B (GeneID 50424)", "amplicon": "DRSC02322", "z-score, replicate 1": 0.18}
{"gene": "CstF50 (GeneID 43734)", "amplicon": "DRSC15434", "z-score, replicate 1": 0.4}
{"gene": "CG30423 (GeneID 246605)", "amplicon": "DRSC04013", "z-score, replicate 1": 0.15}
{"gene": "CG6497 (GeneID 39924)", "amplicon": "DRSC10654", "z-score, replicate 1": 0.26}
{"gene": "CG6497 (GeneID 39924)", "amplicon": "DRSC21469", "z-score, replicate 1": 1.56}
{"gene": "nSyb (GeneID 38196)", "amplicon": "DRSC08727", "z-score, replicate 1": 0.15}
{"gene": "nSyb (GeneID 38196)", "amplicon": "DRSC22961", "z-score, replicate 1": -0.7}
{"gene": "CG17855 (GeneID 34269)", "amplicon": "DRSC02638", "z-score, replicate 1": -0.17}
{"gene": "CG3328 (GeneID 37871)", "amplicon": "DRSC04357", "z-score, replicate 1": 0.13}
{"gene": "Fit1 (GeneID 38488)", "amplicon": "DRSC08450", "z-score, replicate 1": 1.05}
{"gene": "Zip99C (GeneID 43533)", "amplicon": "DRSC16320", "z-score, replicate 1": 0.69}
{"gene": "CG31960 (GeneID 319047)", "amplicon": "DRSC00281", "z-score, replicate 1": -0.01}
{"gene": "cort (GeneID 33937)", "amplicon": "DRSC02148", "z-score, replicate 1": 0.53}
{"gene": "karr (GeneID 50257)", "amplicon": "DRSC20681", "z-score, replicate 1": 0.49}
{"gene": "Aldh-III (GeneID 45398)", "amplicon": "DRSC06047", "z-score, replicate 1": -0.13}
{"gene": "betaNACtes3 (GeneID 326224)", "amplicon": "DRSC20183", "z-score, replicate 1": 0.33}
{"gene": "CG5326 (GeneID 42655)", "amplicon": "DRSC13568", "z-score, replicate 1": 0.35}
{"gene": "CG5326 (GeneID 42655)", "amplicon": "DRSC15770", "z-score, replicate 1": 0.12}
{"gene": "CG33459 (GeneID 2768847)", "amplicon": "DRSC05615", "z-score, replicate 1": 0.17}
{"gene": "Atg101 (GeneID 32871)", "amplicon": "DRSC20020", "z-score, replicate 1": 0.18}
{"gene": "cGlr1 (GeneID 36744)", "amplicon": "DRSC06270", "z-score, replicate 1": -1.77}
{"gene": "Smyd4-2 (GeneID 39414)", "amplicon": "DRSC10126", "z-score, replicate 1": 0.32}
{"gene": "Tmem214 (GeneID 34514)", "amplicon": "DRSC02924", "z-score, replicate 1": 0.23}
{"gene": "Tmem214 (GeneID 34514)", "amplicon": "DRSC02925", "z-score, replicate 1": 0.59}
{"gene": "CG15710 (GeneID 36832)", "amplicon": "DRSC06581", "z-score, replicate 1": 0.25}
{"gene": "M1BP (GeneID 41042)", "amplicon": "DRSC16566", "z-score, replicate 1": -2.36}
{"gene": "Vps24 (GeneID 40542)", "amplicon": "DRSC12332", "z-score, replicate 1": 0.72}
{"gene": "CG15880 (GeneID 33257)", "amplicon": "DRSC00474", "z-score, replicate 1": 0.17}
{"gene": "CG4520 (GeneID 41902)", "amplicon": "DRSC15590", "z-score, replicate 1": 0.39}
{"gene": "PIG-X (GeneID 246580)", "amplicon": "DRSC22721", "z-score, replicate 1": -2.16}
{"gene": "dve (GeneID 37546)", "amplicon": "DRSC04680", "z-score, replicate 1": 0.24}
{"gene": "sturkopf (GeneID 38150)", "amplicon": "DRSC08637", "z-score, replicate 1": 0.45}
{"gene": "Rh3 (GeneID 42398)", "amplicon": "DRSC16822", "z-score, replicate 1": 0.33}
{"gene": "sphinx1 (GeneID 318005)", "amplicon": "DRSC10993", "z-score, replicate 1": 0.19}

In a second layout: results already given
gene	amplicon	z-score, replicate 1
karr (GeneID 50257)	DRSC20681	0.49
Aldh-III (GeneID 45398)	DRSC06047	-0.13
betaNACtes3 (GeneID 326224)	DRSC20183	0.33
CG5326 (GeneID 42655)	DRSC13568	0.35
CG5326 (GeneID 42655)	DRSC15770	0.12
